Source: PubChem BioAssay AID1259425 (University of Nebraska Medical Center, 2018)
Test: 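Compare each knockdown with KSR1 silencing using changes in marker transcripts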 (primary screen). Cells: HCT116 human colon cancer cells. Reagent: siRNA pool against human genes, 50 nM siRNA. Detection: 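mRNA of six signature genes measured together by branched-DNA assay after 50 nM siRNA pool, blank removed, divided by geometric mean of two housekeeping genes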. Scale: BNIP3L mRNA: higher = more BNIP3L transcript after knockdown; NDRG1 mRNA: higher = more NDRG1 transcript after knockdown; BNIP3 mRNA: higher = more BNIP3 transcript after knockdown; ALDOC mRNA: higher = more ALDOC transcript after knockdown; ACSL5 mRNA: higher = more ACSL5 transcript after knockdown.
The deposit covers about 14,000 reagents; shown is a random part of them. Not stated in the record: the time to read-out.

The opening 4 entries as a preview:
| Gene | BNIP3L mRNA, set 1 | NDRG1 mRNA, set 1 | BNIP3 mRNA, set 1 | ALDOC mRNA, set 1 | ACSL5 mRNA, set 1 |
| --- | --- | --- | --- | --- | --- |
| DUX1 | 0.143 | 0.135 | 0.338 | 0.0213 | 0.132 |
| TNFRSF10A | 0.125 | 0.419 | 0.421 | 0.0238 | 0.611 |
| PURA | 0.0881 | 0.117 | 0.234 | 0.00912 | 0.182 |
| RTL8A | 0.27 | 0.546 | 0.622 | 0.0407 | 0.358 |

Main list, from the start:
| Gene | BNIP3L mRNA, set 1 | NDRG1 mRNA, set 1 | BNIP3 mRNA, set 1 | ALDOC mRNA, set 1 | ACSL5 mRNA, set 1 |
| --- | --- | --- | --- | --- | --- |
| DUX1 | 0.143 | 0.135 | 0.338 | 0.0213 | 0.132 |
| TNFRSF10A | 0.125 | 0.419 | 0.421 | 0.0238 | 0.611 |
| PURA | 0.0881 | 0.117 | 0.234 | 0.00912 | 0.182 |
| RTL8A | 0.27 | 0.546 | 0.622 | 0.0407 | 0.358 |
| LRRN3 | 0.0693 | 0.0929 | 0.277 | 0.0313 | 0.167 |
| RPS16 | 0.169 | 0.153 | 0.495 | 0.042 | 0.132 |
| AGXT2 | 0.295 | 0.774 | 0.276 | 0.0778 | 0.553 |
| DUSP23 | 0.0498 | 0.145 | 0.282 | 0.0149 | 0.134 |
| SPI1 | 0.141 | 0.331 | 0.618 | 0.0132 | 0.423 |
| VAMP5 | 0.0877 | 0.189 | 0.255 | 0.0221 | 0.144 |
| ADIPOR2 | 0.0938 | 0.33 | 0.309 | 0.043 | 0.166 |
| INTS2 | 0.102 | 0.655 | 0.264 | 0.0989 | 0.14 |
| PPP1R12B | 0.126 | 0.309 | 0.275 | 0.0234 | 0.108 |
| TRAF6 | 0.076 | 0.119 | 0.307 | 0.0266 | 0.125 |
| ZSWIM5 | 0.0877 | 0.0886 | 0.257 | 0.0115 | 0.107 |
| SLC35A3 | 0.0918 | 0.173 | 0.31 | 0.0241 | 0.135 |
| DUX5 | 0.245 | 0.554 | 0.381 | 0.017 | 0.234 |
| USP44 | 0.0649 | 0.105 | 0.264 | 0.0113 | 0.0829 |
| SLC28A3 | 0.0384 | 0.754 | 0.295 | 0.00955 | 0.283 |
| RAP1GAP2 | 0.135 | 0.112 | 0.286 | 0.0145 | 0.0887 |
| APOC4 | 0.0693 | 0.196 | 0.459 | 0.0278 | 0.135 |
| BCOR | 0.176 | 0.258 | 0.349 | 0.0518 | 0.458 |
| KCNK7 | 0.049 | 0.0475 | 0.247 | 0.0379 | 0.0541 |
| EPYC | 0.0453 | 0.291 | 0.261 | 0.0118 | 0.155 |
| ZKSCAN3 | 0.184 | 0.209 | 0.438 | 0.0476 | 0.14 |
| DMRTA1 | 0.168 | 0.839 | 0.361 | 0.11 | 0.257 |
| FSCN2 | 0.117 | 0.0705 | 0.267 | 0.00696 | 0.14 |
| CACNA1E | 0.164 | 0.27 | 0.292 | 0.07 | 0.0543 |
| JAK1 | 0.132 | 0.0654 | 0.199 | 0.0112 | 0.198 |
| CPSF4 | 0.0981 | 0.233 | 0.319 | 0.0203 | 0.133 |
| PTCRA | 0.0594 | 0.108 | 0.187 | 0.0237 | 0.175 |
| ADNP2 | 0.289 | 0.153 | 0.347 | 0.0196 | 0.142 |
| DZANK1 | 0.14 | 0.193 | 0.338 | 0.0644 | 0.159 |
| NDST4 | 0.0928 | 0.127 | 0.248 | 0.0329 | 0.108 |
| TOX | 0.286 | 0.736 | 0.284 | 0.0588 | 0.501 |
| SP4 | 0.13 | 0.274 | 0.36 | 0.0241 | 0.212 |
| AP1M1 | 0.206 | 0.52 | 0.515 | 0.0486 | 0.378 |
| MGP | 0.074 | 0.258 | 0.582 | 0.0505 | 0.213 |
| SCARA3 | 0.0892 | 0.0645 | 0.299 | 0.0141 | 0.113 |
| AK4 | 0.119 | 0.286 | 0.468 | 0.0147 | 0.462 |
| FYTTD1 | 0.187 | 0.0904 | 0.256 | 0.0391 | 0.234 |
| PTBP2 | 0.103 | 0.11 | 0.269 | 0.0544 | 0.13 |
| PRDX1 | 0.0944 | 0.104 | 0.227 | 0.0214 | 0.215 |
| TIAL1 | 0.124 | 0.0995 | 0.353 | 0.0154 | 0.317 |
| ARHGAP4 | 0.055 | 0.192 | 0.293 | 0.0147 | 0.148 |
| RPUSD2 | 0.0622 | 0.507 | 0.285 | 0.0367 | 0.207 |
| ETFA | 0.0554 | 0.0751 | 0.235 | 0.00997 | 0.0746 |
| RBFOX2 | 0.284 | 0.415 | 0.46 | 0.0216 | 0.171 |
| WDR87 | 0.168 | 0.416 | 0.285 | 0.048 | 0.389 |
| CHRNA4 | 0.0816 | 0.213 | 0.214 | 0.0276 | 0.127 |
